Reference: PMC7827699
These are yes or no findings as the source states them, for the method shown. Binding seen in cells or lysates may run through a third protein. Here binding means that the protein was enriched with, or labelled near, the bait; the list need not be complete. A no says only that the protein was not detected with the bait.

Protein sequences, listed by entry. Tags and fused reporters are not part of them.
UniProt P61960: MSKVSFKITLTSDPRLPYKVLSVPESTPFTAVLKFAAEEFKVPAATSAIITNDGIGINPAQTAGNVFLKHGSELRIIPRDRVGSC
UniProt Q9GZZ9: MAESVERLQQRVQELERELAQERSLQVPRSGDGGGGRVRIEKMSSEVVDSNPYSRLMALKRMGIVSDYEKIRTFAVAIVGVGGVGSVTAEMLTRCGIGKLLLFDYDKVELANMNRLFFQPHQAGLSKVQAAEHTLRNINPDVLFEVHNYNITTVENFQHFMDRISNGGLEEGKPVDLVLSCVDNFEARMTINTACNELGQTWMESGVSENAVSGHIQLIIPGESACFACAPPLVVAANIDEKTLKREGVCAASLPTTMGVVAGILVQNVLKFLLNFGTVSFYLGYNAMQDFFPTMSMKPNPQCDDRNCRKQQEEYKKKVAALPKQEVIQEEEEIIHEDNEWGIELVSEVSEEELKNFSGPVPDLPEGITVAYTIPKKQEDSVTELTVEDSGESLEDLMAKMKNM
UniProt P47813: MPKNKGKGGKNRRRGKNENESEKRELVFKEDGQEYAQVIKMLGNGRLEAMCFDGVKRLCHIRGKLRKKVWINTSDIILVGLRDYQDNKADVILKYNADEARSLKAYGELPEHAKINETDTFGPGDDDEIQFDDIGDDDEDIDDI
UniProt Q9UGP8: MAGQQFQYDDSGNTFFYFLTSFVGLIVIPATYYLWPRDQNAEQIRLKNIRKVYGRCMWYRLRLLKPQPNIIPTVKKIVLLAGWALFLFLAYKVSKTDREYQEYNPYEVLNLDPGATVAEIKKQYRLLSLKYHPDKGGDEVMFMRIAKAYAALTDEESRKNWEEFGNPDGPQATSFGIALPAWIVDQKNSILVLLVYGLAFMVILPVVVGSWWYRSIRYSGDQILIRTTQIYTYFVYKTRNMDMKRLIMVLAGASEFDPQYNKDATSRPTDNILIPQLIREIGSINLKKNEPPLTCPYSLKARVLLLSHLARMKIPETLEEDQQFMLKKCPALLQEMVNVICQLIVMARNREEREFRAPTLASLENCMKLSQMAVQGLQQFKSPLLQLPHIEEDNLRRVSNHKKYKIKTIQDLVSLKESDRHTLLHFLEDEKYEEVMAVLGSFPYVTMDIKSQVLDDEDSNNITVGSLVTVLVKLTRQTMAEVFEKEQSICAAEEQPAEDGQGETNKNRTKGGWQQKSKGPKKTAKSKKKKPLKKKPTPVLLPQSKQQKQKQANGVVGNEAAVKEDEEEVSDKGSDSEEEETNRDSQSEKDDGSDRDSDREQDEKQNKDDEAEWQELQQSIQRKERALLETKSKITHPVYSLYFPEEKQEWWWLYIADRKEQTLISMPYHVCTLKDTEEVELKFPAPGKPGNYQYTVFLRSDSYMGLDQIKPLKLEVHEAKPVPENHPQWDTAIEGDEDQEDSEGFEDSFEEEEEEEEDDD

B1: TP53RK (protein, UniProt Q96S44 1-253)
chain: MAAARATTPADGEEPAPEAEALAAARERSSRFLSGLELVKQGAEARVFRGRFQGRAAVIKHRFPKGYRHPALEARLGRRRTVQEARALLRCRRAGISAPVVFFVDYASNCLYMEEIEGSVTVRDYIQSTMETEKTPQGLSNLAKTIGQVLARMHDEDLIHGDLTTSNMLLKPPLEQLNIVLIDFGLSFISALPEDKGVDLYVLEKAFLSTHPNTETVFEAFLKSYSTSSKKARPVLKKLDEVRLRGRKRSMVG
B2: UPF1 (protein, UniProt Q92900 1-1129)
chain: MSVEAYGPSSQTLTFLDTEEAELLGADTQGSEFEFTDFTLPSQTQTPPGGPGGPGGGGAGGPGGAGAGAAAGQLDAQVGPEGILQNGAVDDSVAKTSQLLAELNFEEDEEDTYYTKDLPIHACSYCGIHDPACVVYCNTSKKWFCNGRGNTSGSHIVNHLVRAKCKEVTLHKDGPLGETVLECYNCGCRNVFLLGFIPAKADSVVVLLCRQPCASQSSLKDINWDSSQWQPLIQDRCFLSWLVKIPSEQEQLRARQITAQQINKLEELWKENPSATLEDLEKPGVDEEPQHVLLRYEDAYQYQNIFGPLVKLEADYDKKLKESQTQDNITVRWDLGLNKKRIAYFTLPKTDSGNEDLVIIWLRDMRLMQGDEICLRYKGDLAPLWKGIGHVIKVPDNYGDEIAIELRSSVGAPVEVTHNFQVDFVWKSTSFDRMQSALKTFAVDETSVSGYIYHKLLGHEVEDVIIKCQLPKRFTAQGLPDLNHSQVYAVKTVLQRPLSLIQGPPGTGKTVTSATIVYHLARQGNGPVLVCAPSNIAVDQLTEKIHQTGLKVVRLCAKSREAIDSPVSFLALHNQIRNMDSMPELQKLQQLKDETGELSSADEKRYRALKRTAERELLMNADVICCTCVGAGDPRLAKMQFRSILIDESTQATEPECMVPVVLGAKQLILVGDHCQLGPVVMCKKAAKAGLSQSLFERLVVLGIRPIRLQVQYRMHPALSAFPSNIFYEGSLQNGVTAADRVKKGFDFQWPQPDKPMFFYVTQGQEEIASSGTSYLNRTEAANVEKITTKLLKAGAKPDQIGIITPYEGQRSYLVQYMQFSGSLHTKLYQEVEIASVDAFQGREKDFIILSCVRANEHQGIGFLNDPRRLNVALTRARYGVIIVGNPKALSKQPLWNHLLNYYKEQKVLVEGPLNNLRESLMQFSKPRKLVNTINPGARFMTTAMYDAREAIIPGSVYDRSSQGRPSSMYFQTHDQIGMISAGPSHVAAMNIPIPFNLVMPPMPPPGYFGQANGPAAGRGTPKGKTGRGGRQKNRFGLPGPSQTNLPNSQASQDVASQPFSQGALTQGYISMSQPSQMSQPGLSQPELSQDSYLGDEFKSQIDVALSQDSTYQGERAYQHGGVTGLSQY
B3: TXNL1 (protein, UniProt O43396 1-289)
chain: MVGVKPVGSDPDFQPELSGAGSRLAVVKFTMRGCGPCLRIAPAFSSMSNKYPQAVFLEVDVHQCQGTAATNNISATPTFLFFRNKVRIDQYQGADAVGLEEKIKQHLENDPGSNEDTDIPKGYMDLMPFINKAGCECLNESDEHGFDNCLRKDTTFLESDCDEQLLITVAFNQPVKLYSMKFQGPDNGQGPKYVKIFINLPRSMDFEEAERSEPTQALELTEDDIKEDGIVPLRYVKFQNVNSVTIFVQSNQGEEETTRISYFTFIGTPVQATNMNDFKRVVGKKGESH
B4: Hsp70 chaperone HSPA13 (protein, UniProt P48723 23-471)
chain: QQYLPLPTPKVIGIDLGTTYCSVGVFFPGTGKVKVIPDENGHISIPSMVSFTDNDVYVGYESVELADSNPQNTIYDAKRFIGKIFTAEELEAEIGRYPFKVLNKNGMVEFSVTSNETITVSPEYVGSRLLLKLKEMAEAYLGMPVANAVISVPAEFDLKQRNSTIEAANLAGLKILRVINEPTAAAMAYGLHKADVFHVLVIDLGGGTLDVSLLNKQGGMFLTRAMSGNNKLGGQDFNQRLLQYLYKQIYQTYGFVPSRKEEIHRLRQAVEMVKLNLTLHQSAQLSVLLTVEEQDRKEPHSSDTELPKDKLSSADDHRVNSGFGRGLSDKKSGESQVLFETEISRKLFDTLNEDLFQKILVPIQQVLKEGHLEKTEIDEVVLVGGSTRIPRIRQVIQEFFGKDPNTSVDPDLAVVTGVAIQAGIDGGSWPLQVSALEIPNKHLQKTNFN

Biological target: N-terminally StrepII-tagged UFM1 (ubiquitin-fold modifier 1), wildtype (human) (UniProt P61960)
Test: affinity purification with mass spectrometry

Question: “UBA5, the E1 enzyme of UFM1 (from UniProt Q9GZZ9 1-404)” was tested. Which binding did it give?
Answer: The binding was “binds”.

Question: With EIF1AX (from UniProt P47813 1-144) as the molecule, how does the binding read?
Answer: The binding was “binds”.

Question: “Hsp40 chaperone SEC63 (from UniProt Q9UGP8 1-760)” was tested. Which binding did it give?
Answer: Its binding is “no binding”.

Question: How did the binding turn out when B1 was run?
Answer: The binding was “binds”.

Question: For B2, which binding is on record?
Answer: The binding was “binds”.

Question: Which binding does the source give for B3 here?
Answer: The binding was “binds”.

Question: How did the binding turn out when B4 was run?
Answer: The binding was “no binding”.
